Article PMC6610666
No constants are given. Whether binding was seen depends on the method and setting. In cells and extracts the contact can be indirect. Some entries that bind do so weakly or less than the wild type.

Chains of the proteins cited; added tags and fusions are not shown.
UniProt Q8R0K9: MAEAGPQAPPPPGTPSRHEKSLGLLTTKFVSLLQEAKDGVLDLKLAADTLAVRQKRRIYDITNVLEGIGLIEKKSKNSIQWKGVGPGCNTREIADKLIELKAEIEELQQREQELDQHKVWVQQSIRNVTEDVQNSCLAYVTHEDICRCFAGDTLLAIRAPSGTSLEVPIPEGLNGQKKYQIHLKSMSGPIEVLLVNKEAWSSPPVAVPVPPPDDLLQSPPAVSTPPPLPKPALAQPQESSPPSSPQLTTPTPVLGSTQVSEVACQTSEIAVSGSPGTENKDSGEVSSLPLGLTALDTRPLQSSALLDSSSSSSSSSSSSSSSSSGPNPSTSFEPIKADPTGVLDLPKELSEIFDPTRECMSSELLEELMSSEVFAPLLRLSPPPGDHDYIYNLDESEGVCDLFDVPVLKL

B1: YEATS2 (mouse ES cells) (protein, UniProt Q3TUF7 1-1407)
chain: MSGIKRTIKETDPDYEDVSVALPNKRHKAIESSARDAAVQKIETIIKEQFALEMKNKEHEIDVIDQRLIEARRMMDKLRACIVANYYASAGLLKVSEGLKTFDPMAFNHPAIKKFLESPSRSSSPTNQRSETPSANHSESDSLSQHNDFLSDKDNNSNVDVEERPPSTGEQRPSRKAGRDTSSISGSHKRELRNADLTGDETSRLFVKKTIVVGNVSKYIPPDKREENDQSTHKWMVYVRGSRREPSINHFVKKVWFFLHPSYKPNDLVEVREPPFHLTRRGWGEFPVRVQVHFKDSQNKRIDIIHNLKLDRTYTGLQTLGAETVVDVELHRHSLGEDSVYPQSSESDVCDAPPPTLTLPAAVKASAVAQSPEPAAAAPVGEGFPETTEAERHSTFYSLPSSLERTPTKVTTAQKVTFSSHGNSAFQPIASSCKIVPQSQVPNPESPGKSFQPITMSCKIVSGSPISTPSPSPLPRTPTSTPVHLKQGTASSGVSNPHVIVDKPGQVIGASTPSTGSPTSKLPVASQASQGTGSPIPKIHGSSFLTSTVKQEESLFASMPPLCPIGSHPKVQSPKAVTGGLGAFTKVIIKQEPGEAPHVSTTGAASQSAFPQYVTVKGGHMIAVSPQKQVISAGEGTTQSPKIAPSKVVGVPVGSALPSTVKQAVAISSGQILVAKASSSVTKAVGPKQVVTQGVAKAIVSGGGGTIVAQPVQTLTKTQVTAAGPQKSGSQGSVMATLQLPATNLANLANLPPGTKLYLTTNSKNPSGKGKLLLIPQGAILRATNNANLQSGSAAAGGSGSSGAGGGSGGGGGSGAGGTPSTSGPGGGPQHLTYTSYILKQTPQGTFLVGQPSPQTPGKQLTTASVVQGTLGVSSSSAQGQQTLKVISGQKTTLFTQAATAGQASLLKLPDNTLKSVPAAPQLAKPGTTMLRVAGGVITAAPSPAVAFSANGAVHQSEGSTPVSSSVGSIIKTPGQPQVCVSQATMATCKGPAAVAGTAASLVSAPSSISGKATVSGLLKVHSAQSSPQQAVLTIPSQLKPLSINTSGGVQTVLMPVNKVVQSFSTSKLPTTVLPISVPNQAAPSSAPVAIAKVKTEPETPGPNCISQENQVAVKTEESSELSNYVIKVDHLETIQQLLTAVVKKIPLITAKGDDASCFSAKSLEQYYGWNIGKRRAAEWQRAMTVRKVLQEILEKNPRFHHLTPLKTKHIAHWCRCHGYTPPDPESLRHDGDSIEDVLTQIDSEPECLSSFSTADDLCRKLEDLQQFQKREPENEEEVDILSLSEPLKTNIKKEQEEKQEEMRFYLPPTPGSGFVGDITQKIGITLQPVALHRNMYASVVEDMILKATEQLVSDILRQALAVGYQTASPNRIPKEITVSNIHQAICNIPFLDFLTNKHMGRLNEDQ
B2: DP-1 (mouse ES cells) (protein, UniProt Q08639 1-410)
chain: MAKDASLIEANGELKVFIDQNLSPGKGVVSLVAVHPSTVNTLGKQLLPKTFGQSNVNITQQVVIGTPQRPAASNTIVVGSPHTPNTHFVSQNQTSDSSPWSAGKRNRKGEKNGKGLRHFSMKVCEKVQRKGTTSYNEVADELVAEFSAADNHILPNESAYDQKNIRRRVYDALNVLMAMNIISKEKKEIKWIGLPTNSAQECQNLEVERQRRLERIKQKQSQLQELILQQIAFKNLVQRNRQAEQQARRPPPPNSVIHLPFIIVNTSRKTVIDCSISNDKFEYLFNFDNTFEIHDDIEVLKRMGMACGLESGNCSAEDLKVARSLVPKALEPYVTEMAQGSIGGVFVTTTGSTSNGTRLSASDLSNGADGMLATSSNGSQYSGSRVETPVSYVGEDDDDDDDFNENDEED

Molecular target: GFP-E2F4 (wild-type mouse E2F4 fused to GFP) (mouse) (UniProt Q8R0K9)
Assay: co-IP; GFP-Trap (ChromoTek) on TKO mESCs transfected with the GFP-WT (GFP-E2F4) vector, 5.0 x 10^6 cells per pull-down; partners detected by immunoassay

| Binder | binding |
| --- | --- |
| B1 | binds |
| B2 | binds |
